From patent US20060211751A1, “Zolmitriptan crystal forms” (priority 2004, published 2006)
At least one structure is not confirmed: it was looked up by name or label, or the drawing left a doubt.

Assay: Transformation of zolmitriptan crystal forms by heating in a conventional oven, form determined by XRD
Assay type: physicochemical
Conditions: heating temp. 90 °C, about 1.5 to 2 hours
Procedure: Zolmitriptan (0.5 g) crystalline forms were heated in a conventional oven for a period of about 1.5 to 2 hours at different temperatures. The crystal form of the samples was determined by XRD before and after heating.

CN(C)CCc1c[nH]c2ccc(C[C@H]3COC(=O)N3)cc12 [Form M]
Crystal form after heating: A + 10% G
